According to publication PMC11254748:
These are yes or no findings as the source states them, for the method shown. In cells and extracts the contact can be indirect. A yes stands for co-enrichment or nearness to the bait. Other partners may have been found.

Sequences of proteins named here, by UniProt entry; tags and fusion partners are left off.
UniProt O60934: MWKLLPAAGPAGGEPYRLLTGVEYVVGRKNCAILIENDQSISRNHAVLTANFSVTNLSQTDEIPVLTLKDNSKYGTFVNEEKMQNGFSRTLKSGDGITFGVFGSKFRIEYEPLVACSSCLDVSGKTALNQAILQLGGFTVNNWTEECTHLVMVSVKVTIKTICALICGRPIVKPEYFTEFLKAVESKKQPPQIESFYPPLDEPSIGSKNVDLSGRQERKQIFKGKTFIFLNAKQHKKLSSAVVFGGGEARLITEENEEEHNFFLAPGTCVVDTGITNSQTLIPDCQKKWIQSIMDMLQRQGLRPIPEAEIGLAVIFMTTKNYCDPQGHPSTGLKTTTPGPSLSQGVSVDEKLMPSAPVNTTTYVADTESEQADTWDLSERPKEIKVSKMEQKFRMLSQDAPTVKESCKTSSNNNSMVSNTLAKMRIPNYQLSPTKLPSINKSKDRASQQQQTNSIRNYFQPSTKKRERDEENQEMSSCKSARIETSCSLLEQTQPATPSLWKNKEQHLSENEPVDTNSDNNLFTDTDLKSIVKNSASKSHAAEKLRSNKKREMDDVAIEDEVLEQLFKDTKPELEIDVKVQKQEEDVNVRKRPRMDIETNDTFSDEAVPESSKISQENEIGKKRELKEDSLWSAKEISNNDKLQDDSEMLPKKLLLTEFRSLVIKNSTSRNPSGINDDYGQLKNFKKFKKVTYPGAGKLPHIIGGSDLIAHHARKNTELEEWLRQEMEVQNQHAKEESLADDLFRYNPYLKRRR
UniProt Q92993: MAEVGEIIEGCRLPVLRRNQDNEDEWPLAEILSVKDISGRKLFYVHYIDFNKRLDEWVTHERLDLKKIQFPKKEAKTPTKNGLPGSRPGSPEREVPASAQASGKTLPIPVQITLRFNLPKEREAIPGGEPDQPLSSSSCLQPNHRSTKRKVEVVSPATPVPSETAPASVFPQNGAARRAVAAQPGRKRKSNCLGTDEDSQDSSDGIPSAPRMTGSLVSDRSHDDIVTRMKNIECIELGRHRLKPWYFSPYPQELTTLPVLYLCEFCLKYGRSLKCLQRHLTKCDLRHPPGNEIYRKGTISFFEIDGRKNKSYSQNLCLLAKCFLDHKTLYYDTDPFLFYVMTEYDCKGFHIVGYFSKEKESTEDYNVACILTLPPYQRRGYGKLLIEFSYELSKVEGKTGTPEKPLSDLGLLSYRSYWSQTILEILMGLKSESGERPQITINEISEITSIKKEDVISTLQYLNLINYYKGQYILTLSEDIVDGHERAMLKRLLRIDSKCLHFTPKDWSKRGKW

B1: TCOF1 (endogenous, AGS-P cells) (protein, UniProt Q13428 1-1488)
chain: MAEARKRRELLPLIYHHLLRAGYVRAAREVKEQSGQKCFLAQPVTLLDIYTHWQQTSELGRKRKAEEDAALQAKKTRVSDPISTSESSEEEEEAEAETAKATPRLASTNSSVLGADLPSSMKEKAKAETEKAGKTGNSMPHPATGKTVANLLSGKSPRKSAEPSANTTLVSETEEEGSVPAFGAAAKPGMVSAGQADSSSEDTSSSSDETDVEGKPSVKPAQVKASSVSTKESPARKAAPAPGKVGDVTPQVKGGALPPAKRAKKPEEESESSEEGSESEEEAPAGTRSQVKASEKILQVRAASAPAKGTPGKGATPAPPGKAGAVASQTKAGKPEEDSESSSEESSDSEEETPAAKALLQAKASGKTSQVGAASAPAKESPRKGAAPAPPGKTGPAVAKAQAGKREEDSQSSSEESDSEEEAPAQAKPSGKAPQVRAASAPAKESPRKGAAPAPPRKTGPAAAQVQVGKQEEDSRSSSEESDSDREALAAMNAAQVKPLGKSPQVKPASTMGMGPLGKGAGPVPPGKVGPATPSAQVGKWEEDSESSSEESSDSSDGEVPTAVAPAQEKSLGNILQAKPTSSPAKGPPQKAGPVAVQVKAEKPMDNSESSEESSDSADSEEAPAAMTAAQAKPALKIPQTKACPKKTNTTASAKVAPVRVGTQAPRKAGTATSPAGSSPAVAGGTQRPAEDSSSSEESDSEEEKTGLAVTVGQAKSVGKGLQVKAASVPVKGSLGQGTAPVLPGKTGPTVTQVKAEKQEDSESSEEESDSEEAAASPAQVKTSVKKTQAKANPAAARAPSAKGTISAPGKVVTAAAQAKQRSPSKVKPPVRNPQNSTVLARGPASVPSVGKAVATAAQAQTGPEEDSGSSEEESDSEEEAETLAQVKPSGKTHQIRAALAPAKESPRKGAAPTPPGKTGPSAAQAGKQDDSGSSSEESDSDGEAPAAVTSAQVIKPPLIFVDPNRSPAGPAATPAQAQAASTPRKARASESTARSSSSESEDEDVIPATQCLTPGIRTNVVTMPTAHPRIAPKASMAGASSSKESSRISDGKKQEGPATQVSKKNPASLPLTQAALKVLAQKASEAQPPVARTQPSSGVDSAVGTLPATSPQSTSVQAKGTNKLRKPKLPEVQQATKAPESSDDSEDSSDSSSGSEEDGEGPQGAKSAHTLGPTPSRTETLVEETAAESSEDDVVAPSQSLLSGYMTPGLTPANSQASKATPKLDSSPSVSSTLAAKDDPDGKQEAKPQQAAGMLSPKTGGKEAASGTTPQKSRKPKKGAGNPQASTLALQSNITQCLLGQPWPLNEAQVQASVVKVLTELLEQERKKVVDTTKESSRKGWESRKRKLSGDQPAARTPRSKKKKKLGAGEGGEASVSPEKTSTTSKGKAKRDKASGDVKEKKGKGSLGSQGAKDEPEEELQKGMGTVEGGDQSNPKSKKEKKKSDKRKKDKEKKEKKKKAKKASTKDSESPSQKKKKKKKKTAEQTV

Target: NBS1 (endogenous, wild type, AGS-P cells) (human (endogenous in AGS)) (UniProt O60934)
Experiment: affinity purification with mass spectrometry; immunoprecipitation with anti-NBS1 from AGS-P cell lysates, eluted samples analysed by LC–MS/MS

| Molecule | binding |
| --- | --- |
| TIP60 (endogenous, AGS-P cells) (from UniProt Q92993 1-513) (enzyme) | binds |
| B1 | binds |
